# Measured values published in the supplement of paper PMC9135407.
# Where “and” joins values, the source holds several entries; their conditions need not be identical. Equal values may be shown once. Where a name gives a salt, the structure may show the parent alone. ± gives the standard deviation of the averaged measurements. The list shows a part of the results. Part of the spread comes from offsets between plates or batches.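 Primary human stellate myofibroblasts activated in culture; inactivation shown by regained lipid droplets. Readout: fraction of Hoechst-counted cells exceeding a per-plate Bodipy threshold, duplicate wells, each plate with DMSO negative and nortriptyline positive controls. Hits: control-normalized score beyond the plate's top-tenth-percentile nortriptyline wells, or among its three best wells. Final well concentrations unstated.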
# Tested on: primary human hepatic stellate cells (donor 1)
# Assay: percent Bodipy-positive cells; higher = more lipid droplet accumulation
# Conditions: 48 h
# Protocol: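 Primary lipid accumulation screen in primary human hepatic stellate cell myofibroblasts (donor 1, passage 8) in 384-well plates. 100 nL of library compound was pin-transferred into 30 µL medium in duplicate, and cells were treated for 48 h. The 'Scaled' score combines distance from plate baseline, toxicity and reproducibility penalties, and is normalised to nortriptyline (positive) and DMSO (negative) controls on each plate. A hit is defined as scaled >0.85 or among the top 3 wells per plate.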
# [1] = library stock concentration: 10 mM
# [2] = library stock concentration: 1 mM
# [3] = library stock concentration: 3.33 mM
# [4] = library stock concentration: 2 mM
# [5] = library stock concentration: 6.9 mM
# [6] = library stock concentration: 400 uM
smiles,measurement,setting,value
CNc1ccc2oc(C[C@H]3O[C@@]4(CC[C@H]3C)O[C@H]([C@H](C)C(=O)c3ccc[nH]3)[C@H](C)C[C@H]4C)nc2c1C(=O)O,percent Bodipy-positive cells,library stock concentration: 9.5 mM,76 ± 15%
CNc1ccc2oc(C[C@H]3O[C@@]4(CC[C@H]3C)O[C@H]([C@H](C)C(=O)c3ccc[nH]3)[C@H](C)C[C@H]4C)nc2c1C(=O)O [Calcimycin],percent Bodipy-positive cells,[1],95.01 ± 0.88%
CC(=O)O[C@@]12C[C@@H](C)[C@@]3(O)[C@@H](C=C(CO)C[C@]4(O)C(=O)C(C)=C[C@@H]34)[C@@H]1C2(C)C [Prostratin],percent Bodipy-positive cells,[2],64.3 ± 4%
CCN1C[C@]2(COC(=O)c3ccccc3N3C(=O)C[C@H](C)C3=O)CC[C@H](OC)[C@@]34[C@@H]5C[C@H]6[C@H](OC)[C@@H]5[C@](O)(C[C@@H]6OC)[C@](O)([C@@H](OC)[C@H]23)[C@@H]14 [Methyllycaconitine citrate],percent Bodipy-positive cells,[1],6.23 ± 0.87%
CCCCC/C=C\C/C=C\C/C=C\C/C=C\CCCC(=O)NC [Arachidonoyl-N-methyl amide],percent Bodipy-positive cells,[2],6.01 ± 0.28%
CC(N)Cc1c[nH]c2ccc(O)cc12 (stereo not drawn) [alpha-Methyl-5-hydroxytryptamine maleate],percent Bodipy-positive cells,[1],33.3 ± 11%
CC(N)Cc1c[nH]c2ccc(O)cc12 (stereo not drawn),percent Bodipy-positive cells,[1],7.46 ± 2%
CN(N=O)c1cc(O)ccc1O [Dephostatin],percent Bodipy-positive cells,[1],50.7 ± 5%
CN1C[C@H](CO)C=C2c3cccc4[nH]cc(c34)C[C@H]21 [Lysergol],percent Bodipy-positive cells,,33.6 ± 4.8%
Oc1ccc2c3c1O[C@H]1c4c(c5ccccc5n4Cc4ccccc4)C[C@@]4(O)C(C2)N(CC2CC2)CC[C@]314 [N-Benzylnaltrindole hydrochloride],percent Bodipy-positive cells,[1],100%
"BrC1C(Br)C(Br)C(Br)C(Br)C1Br (stereo not drawn) [1,2,3,4,5,6-Hexabromocyclohexane]",percent Bodipy-positive cells,[1],7.14 ± 1%
C[C@H]1CCC[C@H](O)CCCCCc2cc(O)cc(O)c2C(=O)O1,percent Bodipy-positive cells,[1],15.7 ± 13%
COc1ccc(CCN2CCC(Nc3nc4ccccc4n3Cc3ccc(F)cc3)CC2)cc1 [Astemizole],percent Bodipy-positive cells,library stock concentration: 4.4 mM,98.1% and 98.3%
same,percent Bodipy-positive cells,[1],97.6 ± 3.5%
CC(=O)Nc1ccc(OC[C@](C)(O)C(=O)Nc2ccc([N+](=O)[O-])c(C(F)(F)F)c2)cc1 [Andarine],percent Bodipy-positive cells,[3],11.4 ± 0.14%
same,percent Bodipy-positive cells,[1],22.4 ± 4.8%
CC(=O)O[C@H]1C[C@H](O[C@H]2[C@@H](O)C[C@H](O[C@H]3[C@@H](O)C[C@H](O[C@H]4CC[C@@]5(C)[C@H](CC[C@@H]6[C@@H]5C[C@@H](O)[C@]5(C)[C@@H](C7=CC(=O)OC7)CC[C@]65O)C4)O[C@@H]3C)O[C@@H]2C)O[C@H](C)[C@H]1O[C@@H]1O[C@H](CO)[C@@H](O)[C@H](O)[C@H]1O [Lanatoside C],percent Bodipy-positive cells,,75.1 ± 6.2%
CC(=O)O[C@H]1C[C@H](O[C@H]2[C@@H](O)C[C@H](O[C@H]3[C@@H](O)C[C@H](O[C@H]4CC[C@@]5(C)[C@H](CC[C@@H]6[C@@H]5C[C@@H](O)[C@]5(C)[C@@H](C7=CC(=O)OC7)CC[C@]65O)C4)O[C@@H]3C)O[C@@H]2C)O[C@H](C)[C@H]1O[C@@H]1O[C@H](CO)[C@@H](O)[C@H](O)[C@H]1O [Lanatoside c],percent Bodipy-positive cells,[4],89.2 ± 1.8%
same,percent Bodipy-positive cells,[1],92.8 ± 1.5%
Oc1cc2c(cc1O)[C@H]1c3ccccc3CN[C@@H]1CC2 (racemic) [Dihydrexidine hydrochloride],percent Bodipy-positive cells,[1],50.7 ± 0.79%
c1ccc(C2(c3ccccc3)CC2C2=NCCN2)cc1 (stereo not drawn) [Cibenzoline succinate],percent Bodipy-positive cells,[1],66.2 ± 3.7%
CCCN(CCC)C1CCc2ccc(O)cc2C1 (stereo not drawn) [R-(+)-7-Hydroxy-DPAT hydrobromide],percent Bodipy-positive cells,[1],35.9 ± 11%
CCCN(CCC)C1CCc2ccc(O)cc2C1 (stereo not drawn) [(?)-7-Hydroxy-DPAT hydrobromide],percent Bodipy-positive cells,[1],58.8 ± 3.6%
CCCN(CCC)C1CCc2ccc(O)cc2C1 (stereo not drawn) [7-Hydroxy-DPAT hydrobromide],percent Bodipy-positive cells,[1],6.69 ± 0.77%
CC1=C2[C@H]3OC(=O)[C@@H](C)[C@@H]3CC[C@@]2(C)C=CC1=O [alpha-Santonin],percent Bodipy-positive cells,,8.21 ± 3.3%
C/C=C1\C[C@@H](C)[C@](O)(CO)C(=O)OCC2=CCN3CC[C@@H](OC1=O)[C@@H]23 [Retrorsine],percent Bodipy-positive cells,,33.5 ± 3.9%
C[C@](O)(COc1ccc(C#N)cc1)C(=O)Nc1ccc(C#N)c(C(F)(F)F)c1,percent Bodipy-positive cells,[3],4.47 ± 0.085%
same,percent Bodipy-positive cells,[1],11.2 ± 2.8%
CCC(N)C(O)c1ccc(O)c(O)c1 (stereo not drawn) [Ethylnorepinephrine hydrochloride],percent Bodipy-positive cells,library stock concentration: 8.6 mM,5.68 ± 0.8%
same,percent Bodipy-positive cells,[1],33.8 ± 4.1%
c1cncc([C@@H]2CCCN2)c1 [Nornicotine],percent Bodipy-positive cells,[1],18.2 ± 3.5%
CC(C)n1cnc2c(C(=O)N[C@H]3CN4CCC3CC4)cc(Cl)cc21,percent Bodipy-positive cells,[1],38.6 ± 5.1%
Oc1cc(Cl)ccc1Oc1ccc(Cl)cc1Cl [Triclosan],percent Bodipy-positive cells,[5],56.1 ± 7.6%
same,percent Bodipy-positive cells,[1],59.3 ± 12%
CN1CCC[C@@H]1Cc1c[nH]c2ccc(Nc3ncccc3[N+](=O)[O-])cc12,percent Bodipy-positive cells,[1],41.8 ± 14%
CC1(C)C(C=C(Cl)Cl)C1C(=O)OC(C#N)c1cccc(Oc2ccccc2)c1 (stereo not drawn),percent Bodipy-positive cells,[1],65.7 ± 8.1%
CC1(C)C(C=C(Cl)Cl)C1C(=O)OC(C#N)c1cccc(Oc2ccccc2)c1 (stereo not drawn) [Cypermethrin],percent Bodipy-positive cells,library stock concentration: 12 mM,56.9 ± 6.9%
O=S(=O)(c1c(O)c(Cl)cc(Cl)c1Cl)c1c(O)c(Cl)cc(Cl)c1Cl [p38 MAP Kinase Inhibitor IV],percent Bodipy-positive cells,[3],14.9 ± 1.3%
C[N+]1([O-])[C@@H]2C[C@@H](OC(=O)[C@H](CO)c3ccccc3)C[C@H]1[C@@H]1O[C@@H]12 (stereo partly drawn) [Scopolamin-N-oxide hydrobromide],percent Bodipy-positive cells,,17.9 ± 3.9%
C[C@]12N[C@H](Cc3ccccc31)c1ccccc12 [MK-801 (Dizocilpine)],percent Bodipy-positive cells,[3],8.13 ± 2.2%
same,percent Bodipy-positive cells,[1],25 ± 14%
C[C@]12N[C@H](Cc3ccccc31)c1ccccc12 [Dizocilpine maleate],percent Bodipy-positive cells,,53.5 ± 13%
same,percent Bodipy-positive cells,library stock concentration: 5.9 mM,31.4 ± 3.9%
NCCc1ccccn1,percent Bodipy-positive cells,[1],7.03 ± 2.3%
CCCCC/C=C\C/C=C\C/C=C\C/C=C\CCCC(=O)N[C@H](C)COP(=O)(O)O [R-1 Methanandamide Phosphate],percent Bodipy-positive cells,[2],10.6 ± 1.8%
CO[C@@H]1C[C@@H](C[C@H]2CC[C@H](C)[C@H]([C@@H](C)C(=O)O)O2)O[C@]2(O[C@](C)([C@H]3CC[C@@](C)([C@@H]4O[C@@H]([C@H]5O[C@@](O)(CO)[C@H](C)C[C@@H]5C)C[C@@H]4C)O3)C[C@H]2C)[C@@H]1C [Nigericin],percent Bodipy-positive cells,[5],72.7 ± 12%
COC(=O)/C=C/C(=O)N[C@@H]1CC[C@@]2(O)[C@H]3Cc4ccc(O)c5c4[C@@]2(CCN3CC2CC2)[C@H]1O5,percent Bodipy-positive cells,[1],29.6 ± 3%
O=C1CCCN1CC#CCN1CCCC1 [Oxotremorine sesquifumarate salt],percent Bodipy-positive cells,[1],27.4 ± 4.5%
O=C1CCCN1CC#CCN1CCCC1 [Oxotremorine sesquifumarate],percent Bodipy-positive cells,library stock concentration: 9.7 mM,9.39 ± 1.2%
O[C@@H]1CCCC[C@H]1N1CCC(c2ccccc2)CC1 [L(-)-vesamicol hydrochloride],percent Bodipy-positive cells,,8.37 ± 3%
Cc1sc2c(c1C)C(c1ccc(Cl)cc1)=N[C@H](CC(=O)OC(C)(C)C)c1nnc(C)n1-2,percent Bodipy-positive cells,library stock concentration: 80 uM,30.9 ± 1.2%
same,percent Bodipy-positive cells,[6],31.1 ± 2.4%
same,percent Bodipy-positive cells,[4],29.8 ± 5.4%
same,percent Bodipy-positive cells,[1],41.5 ± 5.3%
C[C@]12CC[C@H]3[C@@H](CC[C@@]45O[C@@H]4C(O)=C(C#N)C[C@]35C)[C@@H]1CC[C@@H]2O [Trilostane],percent Bodipy-positive cells,[3],15.4 ± 1.6%
same,percent Bodipy-positive cells,[1],22.1 ± 0.45%
C[C@]12CC[C@H]3[C@@H](CC[C@@]45O[C@@H]4C(O)=C(C#N)C[C@]35C)[C@@H]1CC[C@@H]2O,percent Bodipy-positive cells,[1],30.1 ± 2%
O=C(N/N=C/c1ccc([N+](=O)[O-])o1)c1cc([N+](=O)[O-])cc([N+](=O)[O-])c1O,percent Bodipy-positive cells,[1],27.6 ± 11%
"NC(Cn1oc(=O)[nH]c1=O)C(=O)O (single isomer, unassigned; (+)) [(+)-Quisqualic acid]",percent Bodipy-positive cells,[1],12.5 ± 5%
CCCC[C@H]1C(=O)O[C@H](C)[C@H](NC(=O)c2cccc(NC=O)c2OC)C(=O)O[C@@H](C)[C@@H]1OC(=O)CC(C)C [2-methoxyantimycin A3],percent Bodipy-positive cells,library stock concentration: 9.4 mM,89.5 ± 7.8%
C[C@H]1O[C@@H](O[C@@H]2C[C@H](O)[C@]3(CO)[C@H]4[C@H](O)C[C@]5(C)[C@H](C6=CC(=O)OC6)CC[C@]5(O)[C@@H]4CC[C@]3(O)C2)[C@@H](O)[C@H](O)[C@H]1O.O.O.O.O.O.O.O.O [Ouabain],percent Bodipy-positive cells,[3],76.8 ± 2.4%
same,percent Bodipy-positive cells,[1],94.2 ± 3.2%
NNC(=O)c1ccc(O)cc1 [4-Hydroxybenzhydrazide],percent Bodipy-positive cells,[1],26.5 ± 15%
O=C1CSC(c2ccccc2Cl)c2cc(Cl)ccc2N1 (stereo not drawn),percent Bodipy-positive cells,[1],7.79 ± 2.8%
same,percent Bodipy-positive cells,library stock concentration: 15.4 mM,25.3 ± 1.8%
CCCOc1ccc2[nH]cc(C3=CCNCC3)c2n1,percent Bodipy-positive cells,[1],46.1 ± 1.4%
COc1ccc(Cc2nccc3cc(OC)c(OC)cc23)cc1OC [Papaverine hydrochloride],percent Bodipy-positive cells,,30.1 ± 6.4%
same,percent Bodipy-positive cells,library stock concentration: 5.3 mM,4.57 ± 1.3%
same,percent Bodipy-positive cells,[1],21.2% and 40.2%
CCCCC/C=C\C/C=C\C/C=C\C/C=C\CCCC(=O)NC[C@@H](C)O [R-2 Methanandamide],percent Bodipy-positive cells,[2],12.2 ± 8.3%
CNC1=Nc2ccc(Cl)cc2C(c2ccccc2)=[N+]([O-])C1,percent Bodipy-positive cells,[1],17.2 ± 4%
C[C@@H]1NCCc2cc(O)c(O)cc21 [Salsolinol hydrobromide],percent Bodipy-positive cells,,35.3 ± 12%
CCC1(CC)C(=O)C=CNC1=O [Pyrithyldione],percent Bodipy-positive cells,,9.78 ± 3.6%
same,percent Bodipy-positive cells,[1],41.6 ± 1.4%
NCCCP(=O)(O)O [3-Aminopropylphosphonic acid],percent Bodipy-positive cells,[1],37.1 ± 6.2%
CNCCc1c[nH]c2ccc(O)cc12 [N-omega-Methyl-5-hydroxytryptamine oxalate salt],percent Bodipy-positive cells,[1],34.8 ± 8.1%
Cc1c(N)nc(C(CC(N)=O)NCC(N)C(N)=O)nc1C(=O)NC(C(=O)NC(C)C(O)C(C)C(=O)NC(C(=O)NCCc1nc(-c2nc(C(=O)NCCC[S+](C)C)cs2)cs1)C(C)O)C(O[C@@H]1O[C@@H](CO)[C@@H](O)[C@H](O)[C@@H]1O[C@H]1O[C@H](CO)[C@@H](O)[C@H](OC(N)=O)[C@@H]1O)c1cnc[nH]1 (stereo partly drawn) [Bleomycin Sulfate],percent Bodipy-positive cells,[3],11.7 ± 2%
same,percent Bodipy-positive cells,[1],24.8 ± 11%
CCCCC/C=C\C/C=C\C/C=C\C/C=C\CCCC(=O)NC(CO)CO [Arachidonoyl Serinol],percent Bodipy-positive cells,[2],14.5 ± 1.4%
Cc1n[nH]c2ccc(-c3cncc(OC[C@@H](N)Cc4c[nH]c5ccccc45)c3)cc12,percent Bodipy-positive cells,[6],98 ± 1.1%
CC(C)(c1ccc(OCC2CO2)cc1)c1ccc(OCC2CO2)cc1 (stereo not drawn),percent Bodipy-positive cells,[2],11.9 ± 5.7%
same,percent Bodipy-positive cells,[1],10 ± 2.3%
same,percent Bodipy-positive cells,library stock concentration: 14.7 mM,17.7 ± 3.9%
